Test results reported in US9279811B2, “Methods and kits that identify tumors responsive to Src inhibitors” (OREGON HEALTH & SCIENCE UNIVERSITY, priority 2011, dated 2016).
At least one structure is not confirmed: it was looked up by name or label, or the drawing left a doubt.

How the values were obtained:
[1] = test system: SN12C cells expressing constitutively stable HIF-2α-P405A, P853A; test: Cell cycle analysis of HIF-α mutant cell lines, SN12C HIF-2α; assay type: cell-based, human; details: SN12C HIF-2α-P405A
Procedure: (§1) Transduction of empty retroviral vector (pBabe) served as a negative control.
(§2) Flow Cytometry: Cells were plated at a density such that they were no more than 70% confluent on the day of analysis. […] For propidium iodide staining, cells were trypsinized, collected by centrifugation and washed in PBS prior to fixing in 70% v/v ethanol. Ethanol was removed by washing in PBS. Cells were incubated with 100 μg/ml RNase A (Sigma) for 5 minutes and stained with 50 μg/ml PI for 30 minutes. […] Cells were stained with fluorescein isothiocyanate (FITC)-conjugated anti-BrdU antibodies (BD Biosciences) according to the manufacturer's instructions. Following multiple washes in blocking solution and PBS, cells were stained with 5 μg/ml PI for 30 minutes. The PI or BrdU/PI-stained samples were analyzed by an LSR® FACS (Becton Dickinson) and the cell cycle profile was analyzed with the FlowJo® software (Tree Star Inc.). Phosphoprotein flow cytometry analysis was performed as previously described in Shah N P et al, Cell 14, 485 (2008), incorporated by reference herein.

[2] = test system: ACHN cells expressing constitutively stable HIF-2α-P405A, P853A; test: Cell cycle analysis of HIF-α mutant cell lines, ACHN HIF-2α; assay type: cell-based, human; details: ACHN HIF-2α-P405A
Procedure: as §1, §2

[3] = test system: VHL-WT SN12C cells; test: Cell proliferation assay (cell count), SN12C; assay type: cell-based, human
From the text: (§3) Cells were split to sustain log phase growth.

[4] = test system: VHL-WT ACHN cells; test: Cell proliferation assay (cell count), ACHN; assay type: cell-based, human
[5] = test system: SN12C-shVHL cells; test: Cell proliferation assay (cell count), SN12C-shVHL; assay type: cell-based, human
From the text: as §3

[6] = test system: ACHN-shVHL cells; test: Cell proliferation assay (cell count), ACHN-shVHL; assay type: cell-based, human
[7] = test system: VHL-WT RXF-393 cells; test: Cell proliferation assay (cell count), RXF-393; assay type: cell-based, human; details: 25, 50 or 100 nM, cell count after 96 hours
[8] = test system: VHL-WT Caki-1 cells; test: Cell proliferation assay (cell count), Caki-1; assay type: cell-based, human; details: 25, 50 or 100 nM, cell count after 96 hours
[9] = test system: 786-0 cells expressing VHL; test: Cell proliferation assay (cell count), 786-0 cells expressing VHL; assay type: cell-based, human; details: ectopic expression of VHL in VHL-null 786-0 cells; 25 or 50 nM; 96 hours
[10] = test system: SN12C-shSrc cells; test: Cell proliferation assay (cell count), SN12C-shSrc; assay type: cell-based, human; details: 25, 50 or 100 nM, 96 hours
[11] = test system: SN12C-shSrc cells expressing shRNA-resistant Src (Rescue); test: Cell proliferation assay (cell count), SN12C-shSrc rescued with chicken Src; assay type: cell-based, human; details: 25, 50 or 100 nM, 96 hours
[12] = test system: SN12C cells stably expressing v-Src; test: Cell proliferation assay (cell count), SN12C v-Src; assay type: cell-based, human; details: 25 or 50 nM, 96 hours
[13] = test system: ACHN cells expressing v-Src; test: Cell proliferation assay (cell count), ACHN v-Src; assay type: cell-based, human; details: 25 or 50 nM, 96 hours
[14] = test system: SN12C-shPTP1B cells; test: Cell proliferation assay (cell count), SN12C-shPTP1B; assay type: cell-based, human; details: 25, 50 or 100 nM
[15] = test system: CSK-overexpressing SN12C cells; test: Cell proliferation assay (cell count), CSK-overexpressing SN12C; assay type: cell-based, human; details: Csk overexpression in SN12C; 25, 50 or 100 nM; 96 hours
[16] = test system: VHL-WT SN12C cells; test: BrdU incorporation by flow cytometry, SN12C; assay type: cell-based, human; details: 48 hours
[17] = test system: VHL-WT ACHN cells; test: BrdU incorporation by flow cytometry, ACHN; assay type: cell-based, human; details: 48 hours
[18] = test system: SN12C shVHL cells; test: BrdU incorporation by flow cytometry, SN12C shVHL; assay type: cell-based, human; details: 48 hours
[19] = test system: ACHN shVHL cells; test: BrdU incorporation by flow cytometry, ACHN shVHL; assay type: cell-based, human; details: 48 hours
[20] = test system: the cell lines tested (RCC cells); test: Sub-G1 population in cell cycle profiles; assay type: cell-based, human
[21] = test system: Fak (pY576, 577); test: Immunoblot of phosphorylated Src substrate Fak; assay type: cell-based, human; details: VHL-WT cells
[22] = test system: VHL-WT SN12C xenografts; test: SN12C xenografts in nude mice; assay type: in vivo; details: 10 mg/kg daily
[23] = test system: SN12C-shVHL xenografts; test: SN12C-shVHL xenografts in nude mice; assay type: in vivo; details: 10 mg/kg daily
[24] = test system: SN12C-vSrc xenograft tumors; test: SN12C v-Src xenografts in SCID mice; assay type: in vivo; details: 10 mg/kg daily, oral gavage
[25] = test system: parental SN12C tumors; test: Parental SN12C xenografts in SCID mice; assay type: in vivo; details: 10 mg/kg daily, oral gavage
[26] = test system: SN12C cells expressing constitutively stable HIF-1α-P564A; test: Cell cycle analysis, SN12C HIF-1α mutant; assay type: cell-based, human; details: SN12C HIF-1α-P564A
[27] = test system: ACHN cells expressing constitutively stable HIF-1α-P564A; test: Cell cycle analysis, ACHN HIF-1α mutant; assay type: cell-based, human; details: ACHN HIF-1α-P564A

## Cc1nc(Nc2ncc(C(=O)Nc3c(C)cccc3Cl)s2)cc(N2CCN(CCO)CC2)n1 [dasatinib]
[1]
  G1 arrest: resistant to the dasatinib-mediated G1 arrest
[2]
  G1 arrest: resistant to the dasatinib-mediated G1 arrest
[3]
  effect on proliferation: reduced proliferation
[4]
  effect on proliferation: reduced proliferation
[5]
  effect on proliferation: but not their shVHL counterparts
[6]
  effect on proliferation: but not their shVHL counterparts
[7]
  sensitivity (cell growth): sensitive to dasatinib
[8]
  sensitivity (cell growth): sensitive to dasatinib
[9]
  sensitivity (cell proliferation): conferred increased sensitivity
[10]
  sensitivity (cell growth): resistant to dasatinib treatment
[11]
  sensitivity (cell growth): restored dasatinib sensitivity
[12]
  sensitivity (cell growth): resistant to dasatinib
[13]
  sensitivity (cell growth): resistant to dasatinib
[14]
  sensitivity to growth inhibition: relatively resistant
[15]
  sensitivity (cell count): had no effect on dasatinib sensitivity
[16]
  DNA synthesis (BrdU staining): dose-dependent decrease in DNA synthesis
[17]
  DNA synthesis (BrdU staining): dose-dependent decrease in DNA synthesis
[18]
  DNA synthesis (BrdU staining): but not their shVHL counterparts
[19]
  DNA synthesis (BrdU staining): but not their shVHL counterparts
[20]
  mode of growth inhibition (no accumulation of a sub-G1 population): cytostatic
[21]
  phosphorylation of the Src substrate Fak: inhibited phosphorylation
[22]
  Ki67 positive proliferating cells: statistically significant reduction
  apoptosis (cleaved-caspase-3) in xenograft tumors: no statistically significant effect on apoptosis
[22]; oral gavage
  tumor growth: significantly reduced the growth
[23]
  Ki67 positive proliferating cells: but not SN12C-shVHL cells
  apoptosis (cleaved-caspase-3) in xenograft tumors: no statistically significant effect on apoptosis
[23]; oral gavage
  tumor growth: had no effect
[24]
  tumor sensitivity (tumor volume): resistant to dasatinib
[25]
  tumor sensitivity (tumor volume): remained dasatinib-sensitive
[26]
  G1 arrest: resistant to the dasatinib-mediated G1 arrest
[27]
  G1 arrest: resistant to the dasatinib-mediated G1 arrest

## CN1CCN(CCOc2cc(OC3CCOCC3)c3c(Nc4c(Cl)ccc5c4OCO5)ncnc3c2)CC1 [saracatinib]
[3]
  effect on proliferation: repressed proliferation
[5]
  effect on proliferation: but not shVHL cells
